Experimental data taken from the supplement of paper PMC12819154, “High-throughput peptide-centric local stability assay extends protein–ligand identification to membrane proteins, tissues and bacteria” (Nature Structural & Molecular Biology, 2025).
This is one part of the list. Most entries show no effect beyond the scatter of the controls.

Chains of the proteins cited; added tags and fusions are not shown. Lines headed by an entry give the natural chain unless they say otherwise; changes in a name come on top.
UniProt Q52LJ0: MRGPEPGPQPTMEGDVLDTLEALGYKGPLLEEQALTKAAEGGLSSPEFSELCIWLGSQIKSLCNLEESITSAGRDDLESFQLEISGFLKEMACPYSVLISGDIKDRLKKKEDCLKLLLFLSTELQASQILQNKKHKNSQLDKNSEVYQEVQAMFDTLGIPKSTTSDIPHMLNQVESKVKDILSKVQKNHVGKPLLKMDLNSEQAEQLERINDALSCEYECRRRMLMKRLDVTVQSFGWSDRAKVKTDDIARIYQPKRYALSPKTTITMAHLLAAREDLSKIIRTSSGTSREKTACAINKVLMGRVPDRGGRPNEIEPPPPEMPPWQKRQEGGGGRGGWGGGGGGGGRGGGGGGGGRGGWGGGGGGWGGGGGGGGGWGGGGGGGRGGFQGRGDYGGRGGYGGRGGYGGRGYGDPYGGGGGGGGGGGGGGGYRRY
UniProt Q5T1V6: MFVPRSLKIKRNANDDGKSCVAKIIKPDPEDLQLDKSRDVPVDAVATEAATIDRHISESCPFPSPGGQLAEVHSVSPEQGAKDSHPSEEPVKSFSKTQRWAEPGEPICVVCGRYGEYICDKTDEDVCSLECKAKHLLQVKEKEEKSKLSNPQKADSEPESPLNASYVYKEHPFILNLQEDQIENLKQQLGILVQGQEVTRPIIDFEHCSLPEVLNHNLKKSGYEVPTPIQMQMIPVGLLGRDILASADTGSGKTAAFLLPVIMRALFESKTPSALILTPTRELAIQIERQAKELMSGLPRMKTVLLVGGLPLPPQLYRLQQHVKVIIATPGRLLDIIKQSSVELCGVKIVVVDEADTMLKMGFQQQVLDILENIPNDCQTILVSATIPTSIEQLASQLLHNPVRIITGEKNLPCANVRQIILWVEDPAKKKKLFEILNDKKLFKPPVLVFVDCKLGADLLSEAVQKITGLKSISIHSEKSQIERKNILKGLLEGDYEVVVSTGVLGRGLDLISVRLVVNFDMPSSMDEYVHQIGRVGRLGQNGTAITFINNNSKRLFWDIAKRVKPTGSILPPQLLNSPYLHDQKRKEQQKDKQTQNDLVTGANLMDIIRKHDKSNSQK
UniProt Q53S33: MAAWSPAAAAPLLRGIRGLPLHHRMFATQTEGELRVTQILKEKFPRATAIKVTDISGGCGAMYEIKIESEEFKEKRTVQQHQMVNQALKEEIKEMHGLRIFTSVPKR
UniProt Q53RE8: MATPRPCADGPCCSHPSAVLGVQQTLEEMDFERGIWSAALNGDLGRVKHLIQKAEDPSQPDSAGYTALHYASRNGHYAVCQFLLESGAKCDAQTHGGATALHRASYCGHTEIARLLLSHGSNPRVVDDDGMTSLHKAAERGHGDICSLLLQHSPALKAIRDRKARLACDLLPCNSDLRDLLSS
UniProt Q5TG53: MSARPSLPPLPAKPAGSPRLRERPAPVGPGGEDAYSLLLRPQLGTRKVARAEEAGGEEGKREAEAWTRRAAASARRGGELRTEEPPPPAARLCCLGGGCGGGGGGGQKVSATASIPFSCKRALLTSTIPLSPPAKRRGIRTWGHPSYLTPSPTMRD
UniProt Q5TCQ9: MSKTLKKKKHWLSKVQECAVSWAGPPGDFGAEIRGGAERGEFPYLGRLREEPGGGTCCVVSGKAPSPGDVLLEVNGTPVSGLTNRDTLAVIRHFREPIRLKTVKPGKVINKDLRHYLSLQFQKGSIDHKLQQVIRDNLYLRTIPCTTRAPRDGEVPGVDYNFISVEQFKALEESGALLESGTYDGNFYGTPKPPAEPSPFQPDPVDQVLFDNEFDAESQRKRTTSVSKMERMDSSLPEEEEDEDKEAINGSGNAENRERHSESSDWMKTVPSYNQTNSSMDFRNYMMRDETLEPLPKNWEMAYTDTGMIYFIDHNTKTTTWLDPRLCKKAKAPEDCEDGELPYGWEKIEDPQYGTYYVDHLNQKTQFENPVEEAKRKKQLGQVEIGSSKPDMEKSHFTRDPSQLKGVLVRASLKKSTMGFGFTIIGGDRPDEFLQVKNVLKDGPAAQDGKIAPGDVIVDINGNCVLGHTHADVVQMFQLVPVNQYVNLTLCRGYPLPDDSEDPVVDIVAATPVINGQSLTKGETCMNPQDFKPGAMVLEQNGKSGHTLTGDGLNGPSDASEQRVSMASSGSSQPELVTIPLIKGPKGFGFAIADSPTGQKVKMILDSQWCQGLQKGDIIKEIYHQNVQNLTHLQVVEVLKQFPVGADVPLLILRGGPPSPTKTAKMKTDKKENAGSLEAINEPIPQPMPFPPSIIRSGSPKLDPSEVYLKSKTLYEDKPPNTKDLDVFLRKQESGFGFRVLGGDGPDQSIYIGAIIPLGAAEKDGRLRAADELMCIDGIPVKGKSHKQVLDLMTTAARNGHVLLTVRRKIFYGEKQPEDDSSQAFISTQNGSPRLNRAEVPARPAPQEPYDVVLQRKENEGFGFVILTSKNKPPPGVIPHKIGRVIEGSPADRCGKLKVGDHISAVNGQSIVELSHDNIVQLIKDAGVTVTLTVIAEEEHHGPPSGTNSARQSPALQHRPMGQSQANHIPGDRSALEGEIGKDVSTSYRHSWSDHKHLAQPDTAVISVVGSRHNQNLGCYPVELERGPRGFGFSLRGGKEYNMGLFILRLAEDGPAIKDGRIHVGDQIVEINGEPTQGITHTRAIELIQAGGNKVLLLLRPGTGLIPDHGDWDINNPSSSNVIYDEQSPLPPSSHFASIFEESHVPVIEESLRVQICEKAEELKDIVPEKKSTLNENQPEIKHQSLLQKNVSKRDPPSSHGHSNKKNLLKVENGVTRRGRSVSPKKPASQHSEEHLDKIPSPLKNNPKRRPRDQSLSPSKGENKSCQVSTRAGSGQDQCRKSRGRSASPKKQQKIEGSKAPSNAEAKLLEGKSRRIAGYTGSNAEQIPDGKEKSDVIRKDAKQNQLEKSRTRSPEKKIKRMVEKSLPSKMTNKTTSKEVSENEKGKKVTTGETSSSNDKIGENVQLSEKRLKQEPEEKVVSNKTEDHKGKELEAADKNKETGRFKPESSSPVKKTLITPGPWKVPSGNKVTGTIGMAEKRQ
UniProt Q5HY98: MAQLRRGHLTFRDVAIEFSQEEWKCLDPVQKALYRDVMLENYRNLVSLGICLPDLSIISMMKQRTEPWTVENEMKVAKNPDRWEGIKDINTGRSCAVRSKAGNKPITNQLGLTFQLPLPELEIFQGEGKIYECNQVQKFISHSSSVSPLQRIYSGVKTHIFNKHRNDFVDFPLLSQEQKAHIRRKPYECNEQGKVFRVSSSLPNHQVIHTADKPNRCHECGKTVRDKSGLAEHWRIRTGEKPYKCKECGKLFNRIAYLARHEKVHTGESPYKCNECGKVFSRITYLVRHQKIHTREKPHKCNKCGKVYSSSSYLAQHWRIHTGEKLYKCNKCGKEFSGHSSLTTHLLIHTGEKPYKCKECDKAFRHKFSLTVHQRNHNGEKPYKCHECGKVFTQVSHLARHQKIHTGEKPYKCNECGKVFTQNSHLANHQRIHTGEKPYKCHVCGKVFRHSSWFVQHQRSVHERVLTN
UniProt Q5T124: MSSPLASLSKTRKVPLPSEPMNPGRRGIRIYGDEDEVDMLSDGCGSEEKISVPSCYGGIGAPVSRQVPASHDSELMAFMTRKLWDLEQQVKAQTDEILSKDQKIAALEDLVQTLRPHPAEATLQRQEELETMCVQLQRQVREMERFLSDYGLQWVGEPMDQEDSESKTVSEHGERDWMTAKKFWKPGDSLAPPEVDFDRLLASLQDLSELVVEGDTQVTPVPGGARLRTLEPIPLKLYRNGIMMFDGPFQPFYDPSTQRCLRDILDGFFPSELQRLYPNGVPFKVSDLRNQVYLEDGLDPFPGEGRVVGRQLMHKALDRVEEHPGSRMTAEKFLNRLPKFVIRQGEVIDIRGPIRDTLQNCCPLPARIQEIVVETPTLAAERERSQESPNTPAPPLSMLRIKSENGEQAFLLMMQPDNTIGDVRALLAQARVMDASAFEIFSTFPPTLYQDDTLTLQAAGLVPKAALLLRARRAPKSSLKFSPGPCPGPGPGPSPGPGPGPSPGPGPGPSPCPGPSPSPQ
UniProt Q5T5D7: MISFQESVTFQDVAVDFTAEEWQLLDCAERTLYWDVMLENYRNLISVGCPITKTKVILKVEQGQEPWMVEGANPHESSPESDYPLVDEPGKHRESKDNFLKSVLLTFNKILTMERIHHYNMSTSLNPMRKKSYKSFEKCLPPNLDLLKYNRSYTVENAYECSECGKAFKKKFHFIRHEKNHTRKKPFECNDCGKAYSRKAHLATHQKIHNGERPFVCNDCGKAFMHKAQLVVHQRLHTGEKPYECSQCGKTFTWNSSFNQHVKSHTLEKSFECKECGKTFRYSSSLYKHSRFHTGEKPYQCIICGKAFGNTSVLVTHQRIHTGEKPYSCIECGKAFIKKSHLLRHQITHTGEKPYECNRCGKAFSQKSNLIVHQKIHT
UniProt Q5JSZ5: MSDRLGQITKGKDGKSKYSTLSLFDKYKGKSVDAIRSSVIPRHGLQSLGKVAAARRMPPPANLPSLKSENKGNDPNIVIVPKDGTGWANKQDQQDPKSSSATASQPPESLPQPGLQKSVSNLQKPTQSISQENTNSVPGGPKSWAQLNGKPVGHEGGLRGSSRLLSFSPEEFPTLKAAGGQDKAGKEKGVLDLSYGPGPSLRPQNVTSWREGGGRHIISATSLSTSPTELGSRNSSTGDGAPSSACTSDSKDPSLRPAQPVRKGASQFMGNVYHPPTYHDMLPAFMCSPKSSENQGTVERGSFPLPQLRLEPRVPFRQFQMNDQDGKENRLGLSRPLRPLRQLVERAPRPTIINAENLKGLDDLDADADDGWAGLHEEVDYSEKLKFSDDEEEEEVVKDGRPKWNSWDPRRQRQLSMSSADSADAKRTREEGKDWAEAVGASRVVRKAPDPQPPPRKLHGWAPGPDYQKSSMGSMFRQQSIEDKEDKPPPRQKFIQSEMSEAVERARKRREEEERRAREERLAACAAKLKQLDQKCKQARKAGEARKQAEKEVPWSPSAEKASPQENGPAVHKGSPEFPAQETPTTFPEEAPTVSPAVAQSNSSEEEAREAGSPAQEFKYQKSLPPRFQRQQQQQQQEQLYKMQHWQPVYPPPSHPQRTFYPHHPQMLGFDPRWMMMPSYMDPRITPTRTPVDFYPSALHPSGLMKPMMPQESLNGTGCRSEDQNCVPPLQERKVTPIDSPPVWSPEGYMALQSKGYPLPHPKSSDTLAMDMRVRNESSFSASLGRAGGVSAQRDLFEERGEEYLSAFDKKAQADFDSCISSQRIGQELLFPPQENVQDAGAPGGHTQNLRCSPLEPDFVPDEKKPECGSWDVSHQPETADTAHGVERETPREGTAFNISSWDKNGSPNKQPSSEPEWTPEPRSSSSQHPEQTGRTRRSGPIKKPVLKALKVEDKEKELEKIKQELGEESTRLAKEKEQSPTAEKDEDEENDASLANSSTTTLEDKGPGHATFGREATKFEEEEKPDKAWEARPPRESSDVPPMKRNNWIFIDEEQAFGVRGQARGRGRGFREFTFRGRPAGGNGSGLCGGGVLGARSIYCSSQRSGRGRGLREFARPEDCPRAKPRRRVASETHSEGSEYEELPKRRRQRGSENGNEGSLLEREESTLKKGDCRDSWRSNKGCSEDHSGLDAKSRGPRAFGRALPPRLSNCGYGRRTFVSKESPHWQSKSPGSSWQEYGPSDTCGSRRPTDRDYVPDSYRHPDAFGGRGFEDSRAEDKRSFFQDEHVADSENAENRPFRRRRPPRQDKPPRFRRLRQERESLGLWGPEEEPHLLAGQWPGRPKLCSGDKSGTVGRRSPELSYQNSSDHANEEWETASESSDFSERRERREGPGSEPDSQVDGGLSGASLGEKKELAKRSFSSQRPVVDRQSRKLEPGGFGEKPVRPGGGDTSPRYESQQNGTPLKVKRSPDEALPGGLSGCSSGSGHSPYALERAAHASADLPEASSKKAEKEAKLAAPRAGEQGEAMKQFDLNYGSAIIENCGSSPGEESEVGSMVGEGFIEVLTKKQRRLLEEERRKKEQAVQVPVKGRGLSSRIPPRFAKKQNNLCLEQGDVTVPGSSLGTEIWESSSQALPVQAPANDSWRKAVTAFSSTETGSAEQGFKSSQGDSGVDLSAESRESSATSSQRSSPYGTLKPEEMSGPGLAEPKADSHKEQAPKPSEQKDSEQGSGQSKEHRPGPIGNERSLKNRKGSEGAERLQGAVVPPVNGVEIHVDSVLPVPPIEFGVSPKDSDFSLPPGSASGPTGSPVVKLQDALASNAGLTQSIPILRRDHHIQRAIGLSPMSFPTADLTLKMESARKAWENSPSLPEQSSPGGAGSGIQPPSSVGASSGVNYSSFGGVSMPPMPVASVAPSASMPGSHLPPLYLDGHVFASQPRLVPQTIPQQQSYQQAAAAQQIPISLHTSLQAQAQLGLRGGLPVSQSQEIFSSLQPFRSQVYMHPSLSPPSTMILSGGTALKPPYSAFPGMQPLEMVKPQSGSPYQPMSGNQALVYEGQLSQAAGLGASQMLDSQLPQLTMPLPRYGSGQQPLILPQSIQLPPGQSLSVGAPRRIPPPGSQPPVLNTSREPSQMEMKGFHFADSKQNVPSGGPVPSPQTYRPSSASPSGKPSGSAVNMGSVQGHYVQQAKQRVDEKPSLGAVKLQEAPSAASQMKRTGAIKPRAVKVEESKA

The targets below were run with Cc1nc(Nc2ncc(C(=O)Nc3c(C)cccc3Cl)s2)cc(N2CCN(CCO)CC2)n1 [dasatinib] (assay: log2 fold change of tryptic peptide abundance, ligand vs vehicle (limited proteolysis) (log2 ratio); higher = more trypsin-susceptible (destabilized)). Conditions: ligand concentration: 5 uM; sample: K562 cleared lysate.

Target	log2 fold change
PPM1J (peptide sequence: HNEDQACCEVVYVEGR, peptide start residue: 118) (UniProt Q5JR12)	0.27
HABP4 (peptide sequence: KSLPAPVAQRPDSPGGGLQAPGQK, peptide start residue: 96) (UniProt Q5JVS0)	0.473
UniProt Q3ZCX4 (peptide sequence: KENLITHQK, peptide start residue: 262)	0.125
HS1BP3 (peptide sequence: YSEIEEFYQK, peptide start residue: 71) (UniProt Q53T59)	-0.155
CBWD5 (peptide sequence: HLTEEKPDGLINEATR, peptide start residue: 177) (UniProt Q5RIA9)	-0.0578
FAM98B (peptide sequence: GGRPNEIEPPPPEMPPWQKR, peptide start residue: 309) (UniProt Q52LJ0)	-0.363
ARL13B (peptide sequence: NNEFGLVENYK, peptide start residue: 311) (UniProt Q3SXY8)	0.592
SAMD4B (peptide sequence: QFPMPPR, peptide start residue: 575) (UniProt Q5PRF9)	0.219
DDX59 (peptide sequence: QIILWVEDPAKK, peptide start residue: 419) (UniProt Q5T1V6)	-0.657
GON4L (peptide sequence: CCEEIQPHQWKPPIER, peptide start residue: 896) (UniProt Q3T8J9)	0.146
UniProt Q53EQ6 (peptide sequence: DFGVPGGTLR, peptide start residue: 80)	-0.0195
UniProt Q3SXZ3 (peptide sequence: DVMLENYR, peptide start residue: 35)	0.00107
UniProt Q5VT25 (peptide sequence: EDLNKELVQASER, peptide start residue: 545)	0.304
UniProt Q5JPF3 (peptide sequence: DSDHISTR, peptide start residue: 525)	0.0962
BOLA3 (peptide sequence: VTQILKEKFPR, peptide start residue: 36) (UniProt Q53S33)	-0.343
ANKRD39 (peptide sequence: NGHYAVCQFLLESGAK, peptide start residue: 74) (UniProt Q53RE8)	0.125
UniProt Q5TEC6 (peptide sequence: SAPATGGVKKPHR, peptide start residue: 29)	-0.147
CCDC88A (peptide sequence: TQQMNNDLEKLTHELEK, peptide start residue: 918) (UniProt Q3V6T2)	0.642
UniProt Q5TAQ9 (peptide sequence: LQHGLEGHTGCVNTLHFNQR, peptide start residue: 185)	-1.02

Target	log2 fold change
UniProt Q5TG53 (peptide sequence: AEEAGGEEGKR, peptide start residue: 51)	-0.152
UniProt Q5SRN2 (peptide sequence: KSCSKIQILK, peptide start residue: 226)	-0.0416
MAGI3 (peptide sequence: TQFENPVEEAK, peptide start residue: 365) (UniProt Q5TCQ9)	0.269
UBAP2 (peptide sequence: SQPSSLQPK, peptide start residue: 1095) (UniProt Q5T6F2)	-0.113
UniProt Q5T440 (peptide sequence: YLQGVPEGVR, peptide start residue: 224)	0.068
UniProt Q496Y0 (peptide sequence: KHCQIESQEETGMPNK, peptide start residue: 422)	0.724
UniProt Q495B1 (peptide sequence: SQLTATSASR, peptide start residue: 502)	0.109
MIIP (peptide sequence: LFPVPVDPGTPCRLCR, peptide start residue: 249) (UniProt Q5JXC2)	0.14
UniProt Q5CZ79 (peptide sequence: LAAAIGK, peptide start residue: 613)	0.00695
UniProt Q5HY98 (peptide sequence: IYECNQVQK, peptide start residue: 130)	0.00682
ARHGAP15 (peptide sequence: QGTGAVQMR, peptide start residue: 19) (UniProt Q53QZ3)	-0.413
FKBP15 (peptide sequence: VTSLEEELTDLRVEK, peptide start residue: 722) (UniProt Q5T1M5)	0.135
UniProt Q5T124 (peptide sequence: TLEPIPLK, peptide start residue: 229)	-0.172
UniProt Q5T7B8 (peptide sequence: KKPEESAPLCSEK, peptide start residue: 660)	-0.369
WDR44 (peptide sequence: ETENTAYK, peptide start residue: 38) (UniProt Q5JSH3)	-0.292
UniProt Q5T5D7 (peptide sequence: NLISVGCPITK, peptide start residue: 43)	0.0101
LARP7 (peptide sequence: SRPTSEGSDIESTEPQKQCSK, peptide start residue: 254) (UniProt Q4G0J3)	0.878
UniProt Q5JSZ5 (peptide sequence: GYPLPHPK, peptide start residue: 756)	-0.194

Rewritten as a markdown table: part of the list above

| Target | log2 fold change |
| --- | --- |
| UniProt Q5HY98 (peptide sequence: IYECNQVQK, peptide start residue: 130) | 0.00682 |
| ARHGAP15 (peptide sequence: QGTGAVQMR, peptide start residue: 19) (UniProt Q53QZ3) | -0.413 |
| FKBP15 (peptide sequence: VTSLEEELTDLRVEK, peptide start residue: 722) (UniProt Q5T1M5) | 0.135 |
